Out of some 330,000 compounds screened, about 7,700 (2.3%) were called active. Inconclusive means that the source gave no clear call. Such entries were picked first, then a sample of the others. The call rests on the fitted dose curve; in most records, active means well fitted inhibition curve with a large enough effect; inconclusive means small, poorly fitted or top-dose-only effect, or effect the other way; inactive means flat fitted curve, though single readings scatter. A potency beside an inconclusive call is a rough fit, not a confirmed value.
Assay: qHTS screen for small molecules that inhibit ELG1-dependent DNA repair in human embryonic kidney (HEK293T) cells expressing luciferase-tagged ELG1; further: nearly all actives have a fitted effect of over 55% in size
Details: HEK293T ELG1-luciferase reporter, luminescence, 16 h, DNA damage induced by 5-fluorouridine; series mostly up to 46.1 µM
Procedure, shortened: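 Cells (2,000 per well) received 5-fluorouridine plus test compound or DMSO and were incubated 16 hr at 37 °C, 5% CO2. Luciferase activity was read by luminescence 30 min after ONE-Glo addition; signal suppression marked inhibition of damage-induced ELG1 function.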
Potency means the concentration at half of the fitted maximal effect.

Compound	Potency
CN(CC(=O)Nc1ccccc1Br)C(=O)CCc1nc2ccccc2c(=O)[nH]1	inactive
CC(Sc1nnc(COc2ccc3ccccc3c2)n1C)C(=O)O (centres undefined)	inconclusive: 29.1 µM [activator, single point]
C=CCN1C(=O)/C(=C/c2ccc(O)c(OC)c2)S/C1=N/c1nccs1	active: 23.1 µM
Cc1ccc(-n2c(C)cc(/C=N/NC(N)=S)c2C)cc1	inconclusive: 29.1 µM [inhibitor, single point]
C#CCCc1ccccc1/C=[N+](/C)[O-]	inconclusive: 16.4 µM [activator, partial curve, poor fit]
CC(C)(C)OC(=O)C[C@H]1C/C=C\C[C@H](CC(=O)NCCO)C(=O)N[C@@H](Cc2ccccc2)COC1=O	inactive
O=C(CSc1nnc(NC(=O)c2c(F)cccc2F)s1)Nc1ccccc1F	inconclusive: 23.1 µM [activator, single point]
CCCCCc1cc(=O)c2ccccc2o1	inconclusive: 23.1 µM [activator, single point]
N/C(=N\OC(=O)CC1CCCCC1)c1ccc([N+](=O)[O-])cc1	inactive
CCOC(=O)N1CCc2c(sc(NC(=O)CN3CCOCC3)c2C#N)C1	inconclusive: 18.3 µM [inhibitor, single point]
CCOc1ccc(CCNC(=O)c2ccc3c(=O)n4c(nc3c2)CCCCC4)cc1	active: 16.4 µM
CCc1cccc(NC2c3ccccc3C(=O)N2c2ccc(C)cn2)c1 (centres undefined)	inconclusive: 16.4 µM [activator, single point]
O=C(Nc1cc(=O)c2ccccc2o1)N1CCOCC1	active: 5.8 µM
O=C(Cn1nc(-c2ccco2)ccc1=O)Nc1ccc(Cl)c(Cl)c1	inactive
CCc1cc(C(=O)c2ccccc2OC)c(N)s1	inconclusive: 25.9 µM [inhibitor, partial curve]
Cc1c2ccccc2nc2c(F)c(NC(C)C)c(F)c(F)c12	inconclusive: 14.6 µM [activator, partial curve]
Cc1nc(C)c(-c2csc(NCc3ccco3)n2)s1	inconclusive: 11.6 µM [activator, partial curve]
CCC(Oc1ccccc1)C(=O)Nc1ncc([N+](=O)[O-])s1 (centres undefined)	inconclusive: 20.6 µM [inhibitor, single point]
CCOC(=O)c1c(NC(=O)COC(=O)Cn2cnc3c2c(=O)n(C)c(=O)n3C)sc(C)c1CC	inconclusive: 5.17 µM [activator, partial curve, poor fit]
COc1cccc(N=C2SC(C(=O)Nc3ccc(F)cc3)CC(=O)N2C)c1 (centres undefined)	inconclusive: 25.9 µM [inhibitor, partial curve]
Cc1c(NC(=O)OCc2ccccc2)c(=O)n(-c2ccccc2)n1C	inactive
CCOC(=O)C1CCN(C(=O)c2ccc3c(c2)S(=O)(=O)c2ccccc2C3=O)CC1	inconclusive: 29.1 µM [inhibitor, single point]

In the list so far, two have a nitro group on carbon.
Compound	Potency
N/C(=N\OC(=O)CC1CCCCC1)c1ccc([N+](=O)[O-])cc1	inactive
CCC(Oc1ccccc1)C(=O)Nc1ncc([N+](=O)[O-])s1 (centres undefined)	inconclusive: 20.6 µM [inhibitor, single point]

Additional structures:

Compound	Potency
COCCCNCCCCSc1ccc(Cl)cc1	inactive
CN(Cc1nccs1)C(=O)c1ccc2nc(Cc3ccccc3F)oc2c1	inconclusive: 25.9 µM [inhibitor, single point]
COC(=O)[C@@]12CCCN1[C@H](c1ccc(-c3ccc(Cl)c(Cl)c3)c(OC)c1)[C@H]1C(=O)N(C)C(=O)[C@H]12	inconclusive: 4.61 µM [inhibitor, full curve]
CCn1c(CC(=O)Nc2ccc(Cl)c(Cl)c2)nnc1SCc1ccc(C)cc1	inconclusive: 1.16 µM [inhibitor, partial curve, poor fit]
O=C(Cn1cc(Cl)ccc1=O)c1ccc(Cl)cc1	inconclusive: 20.6 µM [activator, single point]
NC(=O)c1c(NC(=O)c2ccc(F)cc2Cl)sc2c1CCC2	inconclusive: 16.4 µM [activator, partial curve]
O=C(NCC1CCCCC1)c1ccc(Cl)c(S(=O)(=O)N2CCOCC2)c1	inconclusive: 32.6 µM [inhibitor, partial curve, poor fit]
CC[C@H](C)[C@@H]1NC(=O)c2cc([N+](=O)[O-])cc(I)c2SC[C@@H](C(N)=O)NC(=O)[C@H](CCCCN)NC1=O	inactive
COc1ccc(CSc2nnnn2C)cc1F	inconclusive: 20.6 µM [activator, single point]
CN(C)CCCNC(=O)C(=O)Nc1ccc2c(c1)N(S(=O)(=O)c1cccs1)CCC2	inactive
CCCC(=O)NC(c1ccc(OC)cc1)c1ccc2cccnc2c1O (centres undefined)	inconclusive: 5.17 µM [inhibitor, single point]
CCOC(=O)COc1cc(N2C(=O)CSCC2=O)c(Cl)cc1Cl	inactive
O=C(CSC(=S)N1CCCC1)N(Cc1nnc(-c2ccccc2Cl)o1)C1CC1	inconclusive: 29.1 µM [inhibitor, single point]
CN(C(=O)COC(=O)c1ccccc1SCC(=O)NC1CCCCCCC1)C1CCS(=O)(=O)C1 (centres undefined)	inactive
CC(C)C(=O)N=C1SC2CS(=O)(=O)CC2N1Cc1ccc(Cl)cc1 (centres undefined)	inconclusive: 14.6 µM [activator, partial curve, poor fit]
Fc1ccc(-n2ncc3c(SCc4cccnc4)ncnc32)cc1	inconclusive: 14.6 µM [activator, partial curve]
O=C(O)CC1NCCc2ccccc21 (centres undefined)	inconclusive: 20.6 µM [activator, single point]
CCN(CC)S(=O)(=O)c1cc(C(=O)Nc2cc(C)on2)ccc1Cl	active: 16.4 µM
CC(=O)Oc1ccc(N(C(C)=O)S(=O)(=O)c2ccc3ccccc3c2)cc1	active: 20.6 µM
O=C(NCC1CCCC(CNC(=O)Nc2ccc(Cl)cn2)C1)Nc1ccc(Cl)cn1 (centres undefined)	inconclusive: 32.6 µM [inhibitor, single point]
CCOC(=O)/C(=N/Nc1ccc(Cl)cc1)S(=O)(=O)c1ccc(Cl)cc1	inconclusive: 10.3 µM [activator, partial curve]
Cc1cccc(NC(=S)NCCc2ccc3c(c2)OCCO3)c1C	inconclusive: 29.1 µM [inhibitor, single point]

From PubChem BioAssay AID504467 (National Center for Advancing Translational Sciences (NCATS), 2011)
